These results are taken from the supplement of paper PMC11150407.

The whole screen tested about 3,000 compounds, of which about 45 (2%) showed an effect of 50% or more. This is one part of the list.

For the assay, the system named is MOLM1 and UCSD/AML1 (averaged). The assay is described as follows: cell viability relative to DMSO control (POC); higher = less growth inhibition. The settings on record: 1 µM; 72 h. How it is done:
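Primary viability screen in the 3q26 EVI1-high AML cell lines MOLM1 and UCSD/AML1, compounds at 1 uM for 72 h. ATP CellTiter-Glo read-out given as percent viable over DMSO control (POC), averaged over duplicates. This mapping covers the TimTec NDL-3000 natural derivative library, whose compounds are identified by TimTec catalogue codes (ST...).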
With `CC/C(O)=C1\C(=O)CCCC1=NCCc1c(C)[nH]c2ccc(OC(F)(F)F)cc12`, the cell viability came to 102%. As for `Cn1c(=O)c2c(nc(Sc3nc4ccccc4[nH]3)n2Cc2ccc(Cl)cc2Cl)n(C)c1=O`, the figure is 94.8%; as for `CC(C)C(=O)Oc1ccc2c(=O)c(Oc3ccc4ccccc4c3)coc2c1`, 92.6%; as for `COc1ccc(-c2cc(-c3ccccc3)nc3sc(C(=O)N4CCC[C@H]4C(=O)O)c(N)c23)cc1`, 94.3%.

Take `CCOc1ccc(NC(=O)CSc2nc3c(=O)[nH]cnc3n2C)cc1`: the cell viability is 103%. As for `O=c1oc2c(Br)cc(Cl)cc2c(-c2ccccc2)c1-c1ccc(Br)cc1`, the figure is 76.8%; as for `C=CCOC1OC(COC(C)=O)C(OC(C)=O)C(OC(C)=O)C1OC(C)=O` (centres undefined), 91.1%; as for `COc1cc(-c2oc3c(OC)c(OC4OC(COC(C)=O)C(O)C(O)C4OC4OC(C)C(O)C(O)C4O)cc(O)c3c(=O)c2O)ccc1O` (centres undefined), 106%.

With `COC(=O)/C=C/c1cc(OC)c(OC)c(OC)c1`, the cell viability amounted to 101%. As for `CCN(CC)c1ccc(C2C3CCCCC3(O)CCN2C(=O)/C=C/c2ccc(C(C)C)cc2)cc1` (centres undefined), the figure is 88%.

`COC(=O)c1c(C)nc(C)c2c(=O)[nH]c3cc(OC)c(OC)cc3c12`: the cell viability came out at 86.5%. As for `Cc1ccc(-n2c(SCc3nc(-c4cccc(C)c4)oc3C)nc3c(=O)[nH]cnc32)cc1`, the figure is 107%; as for `O=C(Cn1c(=O)cc(C(=O)N2CCCCC2)c2ccccc21)Nc1ccc(Br)cc1`, 98%. To `CC(C)CC(NC(=O)C(NC(=O)C1OC2OC(C)(C)OC2C2OC(C)(C)OC12)C(C)C)C(=O)O` (centres undefined) belongs 96.4%. Regarding `Cc1cc2c(C(C)C)c(O)c(O)c(C=Nc3ccc4c(c3)CCN4S(C)(=O)=O)c2c(O)c1-c1c(C)cc2c(C(C)C)c(O)c(O)c(C=Nc3ccc4c(c3)CCN4S(C)(=O)=O)c2c1O`, the cell viability is 111%. Regarding `O=C(CN(c1cccc([N+](=O)[O-])c1)S(=O)(=O)c1ccccc1)N1CCc2ccccc2C1`, the cell viability came out at 103%.

`COc1ccc(Nc2nc(N3CCN(c4nc(-c5ccccc5)cs4)CC3)nc3ccccc23)c(OC)c1`: the cell viability came to 86%.

`COc1ccc(-c2coc3cc(OC)c(OC)cc3c2=O)cc1OC`: the cell viability worked out at 99.8%.

Turning to `O=C(O)c1cc(O)c2ccccc2c1O`, the cell viability came out at 87.5%. To `COc1ccc(C(=O)NC(=S)Nc2cc(C(F)(F)F)ccc2Cl)cc1OC` belongs 99.4%. As for `COc1ccc(C(=O)Nc2ccccc2C(=O)N2CCCCC2C)c(OC)c1OC` (centres undefined), the figure is 106%; as for `O=C(/C=C/c1ccccc1Cl)Oc1ccc(C=Nc2cccc(C(F)(F)F)c2)cc1`, 106%; as for `Cc1ccc2c(c1)c1c(n2C)CC[N+](C)(C)C1`, 99.1%.

Consider `COc1ccc(C(=O)Nc2cccc(C3OCCCO3)c2)cc1OC`, for which the cell viability stood at 96.9%. As for `COc1cccc(C=Nc2ccc3cc4ccc(N=Cc5cccc(OC)c5O)cc4nc3c2)c1O`, the figure is 2.39%; as for `Cc1[nH]c2c(C)cccc2c(=O)c1CN1CCCC1`, 101%; as for `CC(C)C(=O)Nc1nc2c(ncn2C2CC(OC(=O)C(C)C)C(CO)O2)c(=O)[nH]1` (centres undefined), 103%. Regarding `O=C(/C=C/c1ccc(O)cc1)c1ccc(O)cc1O`, the cell viability is 102%. As for `COCCCN1C(=O)/C(=C/c2ccc3c(c2)OCO3)SC1=S`, the cell viability is 95.6%.

As to `O=C(/C=C/c1ccccc1O)c1ccccc1O`, the cell viability turned out to be 77.6%.

As to `C=C(CBr)C1Cc2c(ccc3c2OC2COc4cc(OC)c(OC)cc4C2C3=O)O1` (centres undefined), the cell viability was 60.9%.

Regarding `CCCNC(=O)c1cc(=O)n(CC(=O)Nc2cc(F)ccc2F)c2ccccc12`, the cell viability was 100%. `CCn1c2ccccc2c2cc(/C=N/NC(=O)c3cc(OC)c(OC)c(OC)c3)ccc21`: the cell viability came out at 10.7%. Consider `CCOC(=O)c1ccc(OC)c(OC)c1`, for which the cell viability amounted to 104%. Regarding `O=C(/C=C/c1c(Cl)cccc1Cl)c1ccc2ccccc2c1O`, the cell viability stood at 117%. For the compound `Cn1c(=O)c2c(nc(Br)n2Cc2ccccc2Cl)n(C)c1=O`, the cell viability was 102%. In the case of `COc1cccc(C(=O)CC2OC(=O)c3c2ccc(OC)c3OC)c1` (centres undefined), the cell viability turned out to be 96.1%. To `O=C(Nc1ccc2nn(-c3ccc(Cl)cc3)nc2c1)c1ccc2c(c1)OCCO2` belongs 94.4%; to `Cc1cc(C)c2c(c1)OC(N)(C(Cl)(Cl)Cl)CC2=O` (centres undefined), 79.3%. On to `CC(=O)O[C@@H]1CC[C@@]2(C)[C@H](CC[C@@H]3[C@@H]2C[C@H](OC(C)=O)[C@]2(C)[C@@H](C(C)=O)CC[C@@H]32)C1`, for which the cell viability came out at 77.3%. To `O=C(Cn1c(=O)cc(C(=O)N2CCc3ccccc3C2)c2ccccc21)NCc1ccc2c(c1)OCO2` belongs 99.8%. As for `COc1ccc(C=O)cc1OC(=O)N1CCOCC1`, the figure is 104%; as for `COc1cc(C(=O)CCNc2ccc(Oc3ccc(Cl)cc3)cc2)cc(OC)c1OC`, 98.1%; as for `COc1ccc2c(=O)c(O)c(-c3ccccc3)oc2c1`, 62.7%. As to `COc1ccc(Cl)cc1NC(=O)CSc1nc2c(=O)[nH]cnc2n1-c1ccc(C)cc1`, the cell viability was determined as 99.3%. Take `CC(=O)NC(Cc1c[nH]c2ccccc12)C(=O)O` (centres undefined): the cell viability was found to be 90.8%. As for `COc1cc(OC)c(C(=O)/C=C/c2ccc(O)cc2)c(OC)c1`, the figure is 100%; as for `COc1ccc(C(=O)Cn2c(=O)c3ccccc3n(C)c2=O)cc1OC`, 107%; as for `CSc1cccc(NC(=O)CSc2nc3c(=O)[nH]cnc3n2-c2ccccc2)c1`, 94.5%.

Consider `CCN(CC)C(=O)c1cccc(NCCC(=O)c2ccc3c(c2)OCO3)c1`, for which the cell viability was 91.6%. Take `COc1ccc(C2c3[nH]c4ccccc4c3CCN2C(=O)c2ccccc2Br)cc1` (centres undefined): the cell viability came out at 98.6%. In the case of `Cc1c(-c2cccc(Cl)c2)c(=O)oc2ccc(O)cc12`, the cell viability came to 108%.

`COc1ccc2c(c1)c(CC(=O)OCC(N)=O)c(C)n2C(=O)c1ccc(Cl)cc1`: the cell viability is 73.1%. Take `O=C1N=c2ccc(Br)cc2=C1c1sc(=S)n(C(Cc2ccccc2)C(=O)O)c1O` (centres undefined): the cell viability was determined as 84.7%. As to `CCCNC(=O)c1cc2ccc(OC(=O)c3ccccc3I)cc2oc1=O`, the cell viability was 83.3%.

For `O=C(O)c1cc(=O)[nH]c2ccccc12`, the cell viability is 91.2%. As for `O=C(Cn1c(=O)cc(C(=O)N2CCCCC2)c2ccccc21)Nc1ccc(F)cc1`, the figure is 89.9%; as for `CCOc1cc(C2C3CCCCC3(O)CCN2CC(=O)Nc2ccc(Cl)cc2Cl)ccc1O` (centres undefined), 94.2%; as for `CCOC(=O)CCC(=O)Nc1ccccc1C(=O)Nc1ccccc1`, 114%. As for `Cc1cc(C)c2c(CN3CCN(C4CCCCC4)CC3)cc(=O)oc2c1`, the figure is 102%. To `CC1(C)CC(=O)C2=C(C1)Nc1ccccc1N(C(=S)Nc1ccccc1)C2c1ccc(Cl)cc1` (centres undefined) belongs 89.9%; to `COc1cc(OC)cc(C(=O)c2ccc(C(=O)Nc3cc(Oc4ccc(F)cc4)cc([N+](=O)[O-])c3)cc2)c1`, 109%; to `Cc1ccc2c(CN3CCN(CC(=O)Nc4cc(C(F)(F)F)ccc4Cl)CC3)cc(=O)oc2c1`, 121%. For the compound `COc1cc([C@H]2OC[C@@H]3C(c4ccc(OC5OC(COC6OC(C)C(O)C(O)C6O)C(O)C(O)C5O)c(OC)c4)OC[C@H]23)ccc1O` (some centres undefined), the cell viability was determined as 109%. Regarding `COc1cccc(C2NC(C)(C(=O)O)C3C(=O)N(C)C(=O)C23)c1O` (centres undefined), the cell viability came to 88.1%. `COc1cc(OC)cc(C(=O)NCCOc2ccccc2)c1`: the cell viability was determined as 94.8%. As for `CC(c1ccccc1)C(N)C(=O)O` (centres undefined), the figure is 92.6%.

With `Cn1c(=O)c2c(nc(SCC(=O)Nc3ccc(OC(F)(F)F)cc3)n2Cc2ccccc2F)n(C)c1=O`, the cell viability was 92.8%. Take `CCN(CC)C(=O)c1ccc(OCCNC(C)=O)c(OC)c1`: the cell viability amounted to 106%. In the case of `CC1CCN(C(=O)c2cc(=O)n(CC(=O)Nc3ccc(F)c(Cl)c3)c3ccccc23)CC1`, the cell viability is 105%. In the case of `COc1ccc(C2C3CCCCC3(O)CCN2CC(=O)Nc2ccc(Cl)cc2Cl)cc1` (centres undefined), the cell viability is 103%. In the case of `CCc1ccccc1NC(=O)CSc1nc2c(=O)[nH]cnc2n1C`, the cell viability stood at 89.3%. As for `CCOc1ccc(-c2oc3cc(C)ccc3c(=O)c2O)cc1`, the figure is 106%; as for `O=C(O)C(=O)Cc1ccc([N+](=O)[O-])cc1`, 92.6%. On to `COc1ccc(NC(=O)CSc2nc3ncnc(N)c3[nH]2)cc1`, for which the cell viability stood at 111%. As for `COc1ccc2c(c1OC)C(=O)N1C(C(=O)O)Cc3c([nH]c4ccccc34)C21` (centres undefined), the figure is 87%.

For `CC(=O)n1c(=O)oc2ccccc21`, the cell viability was 90.1%. For the compound `C/C(=N\NC(=O)c1nonc1N)c1c[nH]c2ccccc12`, the cell viability is 97.4%. To `COc1cc(C(=O)Nc2ccc(C(=O)c3cccs3)cc2)cc(OC)c1OC` belongs 99.7%; to `O=C1CC(n2c(=O)oc3ccccc32)C2COC1O2` (centres undefined), 14.7%; to `COc1cc2c(c(NC(=O)c3ccoc3C)c1OC)C(=O)OC2`, 103%. As to `COc1cc2c(c(NC(=O)CCC3CCCCC3)c1OC)C(=O)OC2`, the cell viability is 97.7%.

For the compound `COc1ccc(Br)cc1/C=C/C(=O)O`, the cell viability is 95.6%. For `COc1ccc2oc(=O)cc(CN3CCN(Cc4ccc(C)cc4)CC3)c2c1`, the cell viability amounted to 86.3%. Regarding `COC(=O)C1CC23CCCN4CCC5(c6ccccc6N(C(C)=O)C15CC2)C43` (centres undefined), the cell viability is 89.7%.

Turning to `COc1ccc(C(=O)Nc2ccc(Br)c(C)c2)cc1OC`, the cell viability worked out at 84.6%. As for `COc1cc2c(cc1OC)C(c1ccc(N(C)C)cc1)NCC2` (centres undefined), the cell viability is 81.2%. As for `CCOc1ccc2oc(=O)cc(CN3CCN(Cc4nc(-c5ccc(Cl)cc5)oc4C)CC3)c2c1`, the figure is 93%.

In the case of `CCC(Sc1nc2c(=O)[nH]cnc2n1C)C(=O)Nc1cccc(Cl)c1` (centres undefined), the cell viability is 97.9%. To `NC(CCSCC(N)C(=O)O)C(=O)O` (centres undefined) belongs 99.1%. `O=C(/C=C/c1ccccc1Cl)c1ccc(OC(=O)c2ccc([N+](=O)[O-])cc2)cc1`: the cell viability is 85.3%. With `O=C(N/N=C/c1ccc(/C=N/NC(=O)c2cc(O)cc(O)c2)cc1)c1cc(O)cc(O)c1`, the cell viability stood at 93.6%. As for `CCN(CC)C(=O)c1ccc(OCC(=O)N2CCc3ccccc32)c(OC)c1`, the cell viability was determined as 101%. Consider `CCCCN(C(=O)c1cc(OC)c(OC)c(OC)c1)C1=CC2CCC(C1)N2C` (centres undefined), for which the cell viability stood at 105%. As to `COc1ccc(C(=O)Nc2nc(-c3ccc4c(c3)OCCO4)cs2)cc1OC`, the cell viability came to 101%. Turning to `CCSCCn1c(C)c(C(=O)OCc2ccccc2)c2cc(O)c3ccccc3c21`, the cell viability turned out to be 90.3%.

`COc1ccc2[nH]c(C)c(CCNC(=O)c3cc([N+](=O)[O-])ccc3Cl)c2c1`: the cell viability is 101%. Take `C#CCOC(=O)C1(C)CCC2(C)CCC3(C)C(=CC(=O)C4C5(C)CCC(OC(C)=O)C(C)(C)C5CCC43C)C2C1` (centres undefined): the cell viability was 102%. As for `Cc1cc(NC(=O)c2cc3ccccc3o2)ccc1-c1cc2ccccc2oc1=O`, the figure is 86.6%.
